Results from PubChem BioAssay (EPA / NIEHS).
Inconclusive means that the source gave no clear call. Such entries were picked first, then a sample of the others. Potencies beside an inconclusive call are fits to weak or partial responses and may not hold up. Calls of active or inactive are those of the source. How the source made its calls: active means hit-call score of the fitted dose curve at least 0.9, where 1 is the maximum; inconclusive means response in the unintended direction; inactive means score below 0.9.

Protein sequences, listed by entry. Tags and fused reporters are not part of them. Lines headed by an entry give the natural chain unless they say otherwise; changes in a name come on top.
UniProt P51955: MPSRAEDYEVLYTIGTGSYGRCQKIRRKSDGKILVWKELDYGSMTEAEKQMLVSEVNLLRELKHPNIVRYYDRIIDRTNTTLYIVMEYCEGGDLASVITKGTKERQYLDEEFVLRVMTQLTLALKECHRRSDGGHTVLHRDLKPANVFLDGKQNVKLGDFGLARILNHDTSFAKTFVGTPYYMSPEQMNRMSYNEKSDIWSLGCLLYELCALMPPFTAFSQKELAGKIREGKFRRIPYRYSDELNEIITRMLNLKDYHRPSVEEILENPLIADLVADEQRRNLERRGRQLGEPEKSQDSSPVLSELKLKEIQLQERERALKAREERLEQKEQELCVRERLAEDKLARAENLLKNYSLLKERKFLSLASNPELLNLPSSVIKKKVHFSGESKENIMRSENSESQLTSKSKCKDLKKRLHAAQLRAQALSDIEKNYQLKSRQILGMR

Molecular target: human NIMA (Never In Mitosis Gene A)-Related Kinase 2 (NEK2), NEK2 (gene 4751) (UniProt P51955)
Test: NVS_ENZ_hNEK2: NovaScreen (NVS) Enzymatic Assay for human NIMA (Never In Mitosis Gene A)-Related Kinase 2 (NEK2) (AID 2283188)
Method: NVS_ENZ_hNEK2 is a biochemical, single-readout assay that uses extracted gene-proteins in a cell-free assay. Measurements were taken 1 hour after chemical dosing in a 384-well plate.NVS_ENZ_hNEK2 is one of one assay component(s) measured or calculated from the NVS_ENZ_hNEK2 assay. It is designed to make measurements of enzyme activity, a form of enzyme reporter, as detected with fluorescence intensity signals by Fluorescence and electrophoretic mobility shift technology.Data from the assay component NVS_ENZ_hNEK2 was analyzed into 1 assay endpoint. This assay endpoint, NVS_ENZ_hNEK2, was analyzed in the positive analysis fitting direction relative to DMSO as the negative control and baseline of activity. Using a type of enzyme reporter, loss-of-signal activity can be used to understand changes in the enzymatic activity as they relate to the gene NEK2. Furthermore, this assay endpoint can be referred to as a primary readout, because this assay has produced multiple assay endpoints where this one serves a enzymatic activity function. To generalize the intended target to other relatable targets, this assay endpoint is annotated to the kinase intended target family, where the subfamily is serine/threonine kinase.
Binding assays used specific radioligands (tritiated, iodinated) with non-radioactive competitive displacement ligands in agonist or antagonist protocols (as indicated) and various reference compounds and inhibitors to titrate specific binding to receptors and transporters. Most enzyme assays (CYPs, kinases, phosphatases, proteases, HDACs) used recombinant protein and specific substrates (fluorescence mostly, some colorimetric and radioactive) and inhibitors, followed by a biochemical separation of substrate and product. All assays for the biochemical HTS were initially run in duplicate at a single concentration (10 uM for CYP450 assays and 25 uM for all others). […] Each assay was run with positive and negative controls, and concurrent controls on every plate. The follow-up (secondary) screen tested active chemical-pairs in concentration series, as well as a few additional assays not tested in the primary screen, some selected negative inactives, and several cases re-run in the concentration series for confirmatory purposes.

| Structure (SMILES) | AC50 | outcome |
| --- | --- | --- |
| O=C1C2CC=CCC2C(=O)N1SC(Cl)(Cl)Cl (stereo not drawn) | inconclusive: 44.7 µM |  |
| CC1(C)C(C=C(Cl)Cl)C1C(=O)OC(C#N)c1cccc(Oc2ccccc2)c1 (stereo not drawn) | inconclusive: 25 µM |  |
| C=CCC1=C(C)C(OC(=O)C2C(C=C(C)C)C2(C)C)CC1=O (stereo not drawn) | inconclusive: 4.19 µM |  |
| CC[C@H](C)[C@H]1O[C@]2(C=C[C@@H]1C)C[C@@H]1C[C@@H](C/C=C(\C)[C@@H](O[C@H]3C[C@H](OC)[C@@H](O[C@H]4C[C@H](OC)[C@@H](O)[C@H](C)O4)[C@H](C)O3)[C@@H](C)/C=C/C=C3\CO[C@@H]4[C@H](O)C(C)=C[C@@H](C(=O)O1)[C@]34O)O2 (tested in a mixture with another compound) | inconclusive: 0.184 µM |  |
| Cn1sc(Cl)cc1=O | inconclusive: 25 µM |  |
| Oc1ccc(Cl)cc1Cc1ccccc1 | inconclusive: 43.2 µM |  |
| CCNS(=O)(=O)C(F)(F)C(F)(F)C(F)(F)C(F)(F)C(F)(F)C(F)(F)C(F)(F)C(F)(F)F |  | inactive |
| CCCCC(O)(Cn1cncn1)c1ccc(Cl)cc1Cl (stereo not drawn) | inconclusive: 25 µM |  |
| Cn1c(-c2ccccc2)cc(-c2ccccc2)[n+]1C |  | inactive |
| Cc1c(COC(=O)[C@@H]2[C@H](/C=C(\Cl)C(F)(F)F)C2(C)C)cccc1-c1ccccc1 | inconclusive: 0.173 µM |  |
| N#Cc1c(Cl)c(Cl)c(Cl)c(C#N)c1Cl |  | inactive |
| Cc1cc2c3c(c1)C(c1ccccc1)=N[C@@H](NC(=O)c1ccncc1)C(=O)N3CC2 | inconclusive: 25 µM |  |
| C#CCOS(=O)OC1CCCCC1Oc1ccc(C(C)(C)C)cc1 (stereo not drawn) | inconclusive: 25 µM |  |

Looked up above.
In AC50, CC[C@H](C)[C@H]1O[C@]2(C=C[C@@H]1C)C[C@@H]1C[C@@H](C/C=C(\C)[C@@H](O[C@H]3C[C@H](OC)[C@@H](O[C@H]4C[C@H](OC)[C@@H](O)[C@H](C)O4)[C@H](C)O3)[C@@H](C)/C=C/C=C3\CO[C@@H]4[C@H](O)C(C)=C[C@@H](C(=O)O1)[C@]34O)O2 (tested in a mixture with another compound) has the entry inconclusive: 0.184 µM
In AC50, Cc1c(COC(=O)[C@@H]2[C@H](/C=C(\Cl)C(F)(F)F)C2(C)C)cccc1-c1ccccc1 has the entry inconclusive: 0.173 µM
